Measured values: patent US20090215029

Test system: GAL4 (Saccharomyces cerevisiae)
Experiment: EMSA
Conditions: purified recombinant protein; protein details: Santa Cruz Biotechnology sc-4050

Sequence: GATCCAATACGACTCACTATAGCGGAAGACTCTCCTCCGGAGG / GATCCCTCCGGAGGAGAGTCTTCCGCTATAGTGAGTCGTATTG [GAL4 target sequence duplex]
- binding result: binds

The exact form of at least one protein or probe is not confirmed.
